Experimental data reported in paper PMC11171801.
Results are given in words; binding and its absence hold for the method and conditions named. Binding seen in cells or lysates may run through a third protein. These calls come from enrichment with a bait or labelling near it, and not all partners need be listed. Tags and fused reporters may be left off the sequences shown.

Protein sequences, listed by entry. Tags and fused reporters are not part of them.
UniProt Q96PY5: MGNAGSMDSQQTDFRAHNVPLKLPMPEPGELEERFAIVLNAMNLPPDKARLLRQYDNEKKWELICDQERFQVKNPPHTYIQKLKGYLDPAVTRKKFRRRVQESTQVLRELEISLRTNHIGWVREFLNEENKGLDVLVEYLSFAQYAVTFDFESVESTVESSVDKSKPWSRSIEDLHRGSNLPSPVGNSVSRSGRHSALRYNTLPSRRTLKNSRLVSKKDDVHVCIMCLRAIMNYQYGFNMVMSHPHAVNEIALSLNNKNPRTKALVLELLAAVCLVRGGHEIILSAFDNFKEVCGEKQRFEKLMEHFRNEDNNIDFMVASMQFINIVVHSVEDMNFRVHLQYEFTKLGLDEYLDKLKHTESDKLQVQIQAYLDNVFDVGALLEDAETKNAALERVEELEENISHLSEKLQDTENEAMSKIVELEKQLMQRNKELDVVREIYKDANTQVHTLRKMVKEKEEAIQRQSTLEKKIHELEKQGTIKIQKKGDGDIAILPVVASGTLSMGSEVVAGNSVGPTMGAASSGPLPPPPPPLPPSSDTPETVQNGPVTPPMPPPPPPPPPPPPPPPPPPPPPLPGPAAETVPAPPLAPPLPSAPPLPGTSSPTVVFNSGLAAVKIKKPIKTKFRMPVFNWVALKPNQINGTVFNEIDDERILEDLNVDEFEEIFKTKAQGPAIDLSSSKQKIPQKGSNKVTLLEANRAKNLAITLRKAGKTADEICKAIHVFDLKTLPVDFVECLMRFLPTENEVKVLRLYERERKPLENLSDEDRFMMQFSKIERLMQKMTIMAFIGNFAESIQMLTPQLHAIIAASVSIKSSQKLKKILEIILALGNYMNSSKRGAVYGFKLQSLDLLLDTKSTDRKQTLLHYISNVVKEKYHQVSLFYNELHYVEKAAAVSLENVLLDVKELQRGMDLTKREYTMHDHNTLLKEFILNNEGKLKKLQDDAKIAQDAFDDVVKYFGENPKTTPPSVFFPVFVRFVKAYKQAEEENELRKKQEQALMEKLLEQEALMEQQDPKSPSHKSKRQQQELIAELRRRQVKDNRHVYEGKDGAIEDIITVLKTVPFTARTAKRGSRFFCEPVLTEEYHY

Target: FMNL2-birA* fusion protein (human) (UniProt Q96PY5)
Assay: proximity labelling; BioID validation: tagged candidate coexpressed with FMNL2-birA* in HEK293T/17, overnight biotin, lysis in Co-IP buffer (50 mM Tris pH 7.0, 150 mM NaCl, 0.5% Triton-X-100), precipitated with GFP-trap beads (MARK2: anti-DYKDDDDK beads), biotinylation detected with …

binding: binds
B1: GFP-tagged YKT6 (protein, UniProt O15498 1-198)
chain: MKLYSLSVLYKGEAKVVLLKAAYDVSSFSFFQRSSVQEFMTFTSQLIVERSSKGTRASVKEQDYLCHVYVRNDSLAGVVIADNEYPSRVAFTLLEKVLDEFSKQVDRIDWPVGSPATIHYPALDGHLSRYQNPREADPMTKVQAELDETKIILHNTMESLLERGEKLDDLVSKSEVLGTQSKAFYKTARKQNSCCAIM
